Experimental findings from patent publication US4136163A, “P-Menthane carboxamides having a physiological cooling effect” (Wilkinson Sword Limited, priority 1971, dated 1979) are described below.

The nature of the series: Taste, flavour or odour of product containing the compound. It counts as in vivo, human. To be noted: Example 12, toothpick, 0.01 mg, tongue.

In the case of `CCNC(=O)C1CC(C)CCC1C(C)C` (stereo not shown) [H, --C2 H5, N-ethyl-p-menthane-3-carboxamide], the taste entry is reported as “no detectable taste”.
